# System: MRSA BAA-1707
# Assay: MIC assay with metal(II) cation co-treatment
# Type: cell-based, Staphylococcus aureus
smiles,measurement,setting,value
"C[C@H]1c2cccc(O)c2C(=O)C2=C(O)[C@]3(O)C(=O)C(C(N)=O)=C(O)[C@@H](N(C)C)[C@@H]3[C@@H](O)[C@@H]21 [Doxy., Doxycycline, reference compound]",fold elevated MIC with iron(II) co-treatment,"MRSA BAA-1707, 200 µM iron(II)",4 fold
same,fold reduction in MIC with zinc(II) co-treatment,"MRSA BAA-1707, 200 µM zinc(II)",2 fold
